Measured values as given in paper PMC6629125, “Lysyl oxidase–like 2 (LOXL2)–mediated cross-linking of tropoelastin” (The FASEB Journal, 2019).
Results are given in words; binding and its absence hold for the method and conditions named.

Molecular target: T1, full-length lysyl oxidase-like 2 (FL-LOXL2), recombinant human (human), Q9Y4K0
T1 chain: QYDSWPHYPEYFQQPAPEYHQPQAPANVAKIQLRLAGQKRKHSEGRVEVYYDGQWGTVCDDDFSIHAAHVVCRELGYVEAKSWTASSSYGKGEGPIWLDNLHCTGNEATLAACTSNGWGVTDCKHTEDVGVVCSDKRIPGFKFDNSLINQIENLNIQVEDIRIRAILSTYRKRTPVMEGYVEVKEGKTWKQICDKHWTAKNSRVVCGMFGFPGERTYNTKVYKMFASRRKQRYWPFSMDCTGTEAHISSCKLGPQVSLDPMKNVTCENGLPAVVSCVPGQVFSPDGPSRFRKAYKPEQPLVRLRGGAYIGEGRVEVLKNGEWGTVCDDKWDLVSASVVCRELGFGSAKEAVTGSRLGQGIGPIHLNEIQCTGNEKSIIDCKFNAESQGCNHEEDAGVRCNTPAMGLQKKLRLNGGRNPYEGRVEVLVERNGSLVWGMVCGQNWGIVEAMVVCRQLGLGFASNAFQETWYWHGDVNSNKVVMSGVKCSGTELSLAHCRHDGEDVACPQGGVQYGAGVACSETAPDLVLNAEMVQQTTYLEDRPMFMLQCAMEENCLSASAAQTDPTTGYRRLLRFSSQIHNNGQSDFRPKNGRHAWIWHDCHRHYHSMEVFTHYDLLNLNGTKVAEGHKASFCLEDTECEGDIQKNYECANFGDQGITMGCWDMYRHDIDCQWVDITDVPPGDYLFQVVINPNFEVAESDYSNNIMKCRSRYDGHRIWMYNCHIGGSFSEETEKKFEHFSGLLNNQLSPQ
Experiment: negative-stain EM single-particle analysis; FL-LOXL2 at 10 µg/ml on carbon-coated grids, 4% uranyl acetate; about 10,000 particles; 3D reconstruction at 22 Å; both purified
Settings: remark: other sources report otherwise

binding: no binding (tested: 10 µg/ml)
B1: full-length lysyl oxidase-like 2 (FL-LOXL2), recombinant human, Q9Y4K0 26-774 (enzyme)
chain: T1 chain
